Source: paper PMC10115967

Tested on: PuCRZ1 (Polyporus umbellatus)
Assay: EMSA
Settings: 1 ug protein, 7.5 nM probe; EMSA: 1 ug 6xHis-PuCRZ1, 7.5 nM biotin probe, Beyotime chemiluminescent EMSA kit binding buffer (salt and pH not stated), 30 min, room temperature, 6% native PAGE; recombinant protein; protein details: 6xHis (pET32a(+) vector); label: 5'-biotin on both strands

“CAATGGCGACGTCAATGGCGACGTCAATGGCGACGT (double strand) [G10-biotin-2 (PuG10 promoter probe)]”: binds.

“GGTCGGCGCTGGGGTCGGCGCTGGGGTCGGCGCTGG (double strand) [G11-biotin-2 (PuG11 promoter probe)]”: binds.

The exact form of at least one protein or probe is not confirmed.
